PubChem BioAssay AID652243 | Drosophila RNAi Screening Center, 2013
Aim: 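Fly genes required for human androgen receptor driven transcription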 (primary screen). Cells: Drosophila S2R+ cells. Reagents: long dsRNA against Drosophila genes. Timing: 72 h (48 h, then 24 h hormone). Conditions: synthetic androgen R1881 at 10 nM for 24 h. Measured: 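Firefly light from an androgen-responsive reporter and Renilla control light per well, raw and unnormalised, for each of two replicates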. Reading the numbers: firefly reporter light: higher = more light from androgen-responsive reporter; Renilla control light: higher = more constitutive control signal (cell number, transfection). Hit rule: 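Hit when the log firefly-to-Renilla ratio dropped or increased by a fixed fold versus the mean of GFP or LacZ controls across duplicate plates; lowering cut given as 1.5 and as 3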. Calls: active = hit: reporter lowered or raised; inactive = no hit.
In all, the deposit lists about 24,000 reagents; below is an unselected part of those that have a named target and a result. Of all reagents, 246 (1%) were called active. 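Plates not normalised; calls are printed but the firefly/Renilla ratio behind them is not deposited; fold cut for lowering reported inconsistently.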 Raw values are not corrected between plates. Reagents against one gene are numbered here. Not stated in the record: the amount of reagent.

Target gene | reagent | firefly reporter light, replicate 1 | firefly reporter light, replicate 2 | Renilla control light, replicate 1 | Renilla control light, replicate 2 | call
Muc96D | 1 | 4.50e5 | 4.48e5 | 1.29e6 | 1.45e6 | inactive
Muc96D | 2 | 2.25e5 | 4.71e5 | 7.45e5 | 1.14e6 | inactive
CG1239 | 1 | 64843 | 51189 | 4.35e5 | 4.43e5 | inactive
CG1239 | 2 | 6.70e5 | 4.04e5 | 3.00e6 | 1.41e6 | inactive
CG2680 | 1 | 1.86e5 | 3.21e5 | 2.78e6 | 2.81e6 | inactive
para | 1 | 3.65e5 | 4.65e5 | 3.09e6 | 2.63e6 | inactive
syd | 1 | 7.32e5 | 6.35e5 | 1.79e6 | 1.63e6 | inactive
syd | 2 | 3.49e5 | 2.10e5 | 8.96e5 | 5.42e5 | inactive
CG9992 | 1 | 1.44e5 | 1.57e5 | 1.06e6 | 9.15e5 | inactive
CG9992 | 2 | 7.41e5 | 5.22e5 | 2.51e6 | 2.00e6 | inactive
CG31229 | 1 | 1.03e5 | 1.57e5 | 1.90e5 | 3.45e5 | inactive
CG33140 | 1 | 8.64e5 | 5.15e5 | 1.28e6 | 1.52e6 | inactive
CG33140 | 2 | 3.62e5 | 2.99e5 | 5.86e5 | 5.03e5 | inactive
CG13775 | 1 | 1.73e5 | 1.61e5 | 1.32e6 | 1.17e6 | inactive
CG13775 | 2 | 5.85e5 | 4.84e5 | 1.07e6 | 8.81e5 | inactive
Zasp67 | 1 | 2.53e5 | 2.21e5 | 3.78e6 | 3.39e6 | inactive
Zasp67 | 2 | 8.12e5 | 9.72e5 | 9.85e5 | 1.15e6 | inactive
side-V | 1 | 4.51e5 | 3.63e5 | 1.77e6 | 3.15e6 | inactive
Rnmt | 1 | 1.91e5 | 2.05e5 | 2.22e6 | 2.57e6 | inactive
l(3)neo43 | 1 | 1.55e5 | 1.13e5 | 2.66e6 | 2.77e6 | inactive
Shark | 1 | 8.10e5 | 8.85e5 | 1.13e6 | 1.33e6 | inactive
Shark | 2 | 3.34e5 | 6.97e5 | 7.86e5 | 1.25e6 | inactive
Shark | 3 | – | – | – | – | inactive
Mcm7 | 1 | 7.40e5 | 8.66e5 | 1.10e6 | 1.14e6 | inactive
Mcm7 | 2 | 3.88e5 | 1.59e5 | 3.80e5 | 3.56e5 | inactive
CG7882 | 1 | 3.20e5 | 2.58e5 | 1.88e6 | 1.38e6 | inactive
CG1636 | 1 | 4.78e5 | 4.98e5 | 1.63e6 | 1.94e6 | inactive
barc | 1 | 60377 | 62814 | 5.05e5 | 4.09e5 | inactive
stau | 1 | 6.72e5 | 6.09e5 | 8.78e5 | 5.99e5 | inactive
synr | 1 | 2.16e5 | 2.01e5 | 2.81e6 | 1.81e6 | inactive

Records listed so far whose target name starts with Z or z (2):
Target gene | reagent | firefly reporter light, replicate 1 | firefly reporter light, replicate 2 | Renilla control light, replicate 1 | Renilla control light, replicate 2 | call
Zasp67 | 1 | 2.53e5 | 2.21e5 | 3.78e6 | 3.39e6 | inactive
Zasp67 | 2 | 8.12e5 | 9.72e5 | 9.85e5 | 1.15e6 | inactive

More results:
Target gene | reagent | firefly reporter light, replicate 1 | firefly reporter light, replicate 2 | Renilla control light, replicate 1 | Renilla control light, replicate 2 | call
MAN1 | 1 | 7.89e5 | 2.12e5 | 1.71e6 | 5.53e5 | inactive
Suv3 | 1 | 24426 | 25827 | 1.29e5 | 2.86e5 | inactive
CG13850 | 1 | 61066 | 38215 | 4.98e5 | 4.90e5 | inactive
Cerk | 1 | 28849 | 31358 | 3.12e5 | 3.52e5 | active
Cerk | 2 | – | – | – | – | inactive
Cerk | 3 | – | – | – | – | inactive
CG8298 | 1 | 4.02e5 | 3.16e5 | 1.80e6 | 1.80e6 | inactive
CG8298 | 2 | – | – | – | – | inactive
CG8298 | 3 | – | – | – | – | inactive
CR34285 | 1 | 9.25e5 | 5.93e5 | 2.43e6 | 1.49e6 | inactive
Mp20 | 1 | 4.41e5 | 3.22e5 | 1.99e6 | 1.79e6 | inactive
Mp20 | 2 | 3.73e5 | 5.64e5 | 1.46e6 | 1.59e6 | inactive
Ccp84Ag | 1 | 89164 | 1.37e5 | 2.29e6 | 2.10e6 | inactive
Ccp84Ag | 2 | 5.41e5 | 4.67e5 | 1.41e6 | 1.24e6 | inactive
Ccp84Ag | 3 | 8.95e5 | 1.08e6 | 1.53e6 | 1.51e6 | inactive
CG12688 (retired record) | 1 | 2.53e5 | 3.41e5 | 1.52e6 | 1.50e6 | inactive
CG12688 (retired record) | 2 | 8.95e5 | 1.11e6 | 4.06e6 | 2.24e6 | inactive
CG8945 | 1 | 7.30e5 | 7.24e5 | 4.11e6 | 3.32e6 | inactive
Pbgs | 1 | 2.07e5 | 2.14e5 | 1.83e6 | 1.87e6 | inactive
CG9029 | 1 | 2.12e5 | 2.24e5 | 2.30e6 | 1.98e6 | inactive
Mst89B | 1 | 1.38e5 | 96247 | 1.80e6 | 1.88e6 | inactive
CG3430 | 1 | 1.15e6 | 1.34e6 | 1.87e6 | 1.91e6 | inactive
Obp51a | 1 | 4.67e5 | 8.74e5 | 9.27e5 | 1.33e6 | inactive
CG5665 | 1 | 2.91e5 | 2.02e5 | 1.95e6 | 1.19e6 | inactive
CG1418 | 1 | 5.25e5 | 2.99e5 | 1.80e6 | 1.50e6 | inactive
CG1418 | 2 | 3.67e5 | 3.81e5 | 3.88e5 | 6.22e5 | inactive
CG33217 | 1 | 4.11e5 | 8.60e5 | 1.05e6 | 2.25e6 | inactive
CG33217 | 2 | 4.48e5 | 4.26e5 | 1.79e6 | 1.44e6 | inactive
